Test results: PMC7819943, “Rice protein-binding microarrays: a tool to detect cis-acting elements near promoter regions in rice”
The list shows a part of the results.

Chains of the proteins cited; added tags and fusions are not shown.
UniProt Q0JBA9, entry or part of it: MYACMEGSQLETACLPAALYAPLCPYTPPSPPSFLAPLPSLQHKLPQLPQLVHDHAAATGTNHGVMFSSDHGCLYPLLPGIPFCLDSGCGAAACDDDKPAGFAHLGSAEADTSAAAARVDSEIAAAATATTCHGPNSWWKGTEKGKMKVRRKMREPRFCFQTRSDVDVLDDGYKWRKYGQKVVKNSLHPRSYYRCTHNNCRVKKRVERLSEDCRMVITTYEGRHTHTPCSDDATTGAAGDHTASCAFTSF

These sequences were tested against OsWRKY34 (Oryza sativa, UniProt Q0JBA9 1-250) (assay: protein-binding microarray (RPBM); PBS, 2% BSA, 51.3 ng/ul salmon testes DNA, 50 uM zinc acetate, 200 nM TF, 25 C, 1 h; high values mean tight binding). Conditions: protein: recombinant; tags: N-terminal polyhistidine and DsRed monomer fusion (pET32a); label: CyDye5-dUTP incorporated in the synthesized complementary strand; 3' TTTTT single-stranded linker to array surface; dsDNA, one strand shown.
Procedure, shortened: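 Transcription factors were each fused at the N-terminus to a polyhistidine tag plus DsRed and expressed in E. coli BL21-CodonPlus before Ni–NTA purification. Binding to a double-stranded custom Agilent array was carried out with 200 nM protein at 25 °C for 1 h in PBS, 2% BSA, salmon testes DNA and 50 µM zinc acetate. The binding signal is per-feature fluorescence intensity, in arbitrary units, on an Axon 4000B scanner.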
For “CCATTTGTACCAACTCATGATCGTCTTATCTTAGGACCTGCGGAGTCACCTAGTGCAG”, the binding signal was 8880 fluorescence intensity (a.u.). “CCATTTTCAACCTTATCAAGTTTTGTCATTGTCAAATTTTCGGAGTCACCTAGTGCAG” was tested, and the binding signal was 9530 fluorescence intensity (a.u.). With “TTACTAATATTGCGGGCCATCCGATCCTGACCGTTGAATCCGGAGTCACCTAGTGCAG” the binding signal was 8340 fluorescence intensity (a.u.). “TACTATACCACTTACTACTAAGTATTCTGCGCACAAACAGCGGAGTCACCTAGTGCAG” was tested, and the binding signal was 10800 fluorescence intensity (a.u.). For “GGATGATTCAATCTTTGCTATTTGCCTTATCCACCTTAAACGGAGTCACCTAGTGCAG”, the binding signal was 10900 fluorescence intensity (a.u.). “ATTTTTCTACAAAATTAGTCAAACTTGTAGTAGTTTGATTCGGAGTCACCTAGTGCAG” was tested, and the binding signal was 9940 fluorescence intensity (a.u.). “CTCTCATGTGACCGACCACCGCATCCTCAGTTGACCTGTCCGGAGTCACCTAGTGCAG” was tested, and the binding signal was 9780 fluorescence intensity (a.u.). In the case of “TTGTATCTTTTTGGTTAATTTTTTTCAGTTTATCACTTGACGGAGTCACCTAGTGCAG”, the binding signal is reported as 8100 fluorescence intensity (a.u.). In the case of “TCGGTGCGGCTTTTTCTTTCTCTCTCTTTTTTTAAGCACCCGGAGTCACCTAGTGCAG”, the binding signal is reported as 13000 fluorescence intensity (a.u.). In the case of “CACAGTTATGCTATCACCTATCATGTCATAACTTATCTAACGGAGTCACCTAGTGCAG”, the binding signal is reported as 8360 fluorescence intensity (a.u.). For “TTGATTGTTGTTTTTTTTTCCATTTCCCATCTGCCAGTATCGGAGTCACCTAGTGCAG”, the binding signal was 8800 fluorescence intensity (a.u.). In the case of “ATTTTTTTTCCACCAACAATGTTTCAGCTAGTGTACTCATCGGAGTCACCTAGTGCAG”, the binding signal is reported as 8480 fluorescence intensity (a.u.). In the case of “AACTAGGGTGTAGGGGTGGACTTGACACGCGGGCCTGCAGCGGAGTCACCTAGTGCAG”, the binding signal is reported as 9310 fluorescence intensity (a.u.). With “CCAAATCTCTGCCTCTTGTGTTCAGTGCTTGTGACGGCAACGGAGTCACCTAGTGCAG” the binding signal was 8960 fluorescence intensity (a.u.). “AGCACCCTACTCCTATATTTGCATTCATCCAGTACGTGTTCGGAGTCACCTAGTGCAG” was tested, and the binding signal was 9610 fluorescence intensity (a.u.). For “TGCAAACACCTGCACATCACTACGCCGACAGCTTAAAATTCGGAGTCACCTAGTGCAG”, the binding signal was 8170 fluorescence intensity (a.u.). In the case of “CTTGGGGCCTAATGCTGTCTGGGCTTGGGCCGGCCCACTCCGGAGTCACCTAGTGCAG”, the binding signal is reported as 8560 fluorescence intensity (a.u.). “CTGTGACACTTCTTGGCATCTGCTGCACAAACTATACATTCGGAGTCACCTAGTGCAG” was tested, and the binding signal was 8610 fluorescence intensity (a.u.). With “TCACCTCGCCGCTGTGCTCCCACACTCTATCTTCTCTTTCCGGAGTCACCTAGTGCAG” the binding signal was 9800 fluorescence intensity (a.u.). For “CCTCCTCGTCAGTTTGCCCTTGTCCACCGCCTCCGCCTCCCGGAGTCACCTAGTGCAG”, the binding signal was 8140 fluorescence intensity (a.u.). With “TCTAACCCATCCCTGTTTCAGCTATTATTCTTTAATGACTCGGAGTCACCTAGTGCAG” the binding signal was 8480 fluorescence intensity (a.u.). With “CCGGGGACCACCTGTCAGTGACCTTTTATGGTGGGGTAGGCGGAGTCACCTAGTGCAG” the binding signal was 10200 fluorescence intensity (a.u.). “TGCTCTTTTTCCAACCGATCCATGTCACCCTCAAGCTTCTCGGAGTCACCTAGTGCAG” was tested, and the binding signal was 9230 fluorescence intensity (a.u.). “GCTGTTTTGTGGTTTTGTCACAAGATCGAATCCAAGAGTTCGGAGTCACCTAGTGCAG” was tested, and the binding signal was 8290 fluorescence intensity (a.u.). In the case of “CATGTTCATCGGAGAGAGGGTTATTTTGGTCAGTTGAAGTCGGAGTCACCTAGTGCAG”, the binding signal is reported as 8350 fluorescence intensity (a.u.). For “ATCCCCATGCTTGCGCACCACTCCCGGCCACATCCCGCGCCGGAGTCACCTAGTGCAG”, the binding signal was 13800 fluorescence intensity (a.u.). With “ATCTAATCAAGCACAACTCCAGTTCCTGCTTACTGCCACCCGGAGTCACCTAGTGCAG” the binding signal was 8830 fluorescence intensity (a.u.). With “ATGTGAGTTTTTTTTTTGCAATGGAATATTTCGTTCACTACGGAGTCACCTAGTGCAG” the binding signal was 9140 fluorescence intensity (a.u.). In the case of “GGTCCATTGATCGAATCTACACACTCGCTATGTTTGCTACCGGAGTCACCTAGTGCAG”, the binding signal is reported as 8150 fluorescence intensity (a.u.). “CCGCAGAGCCTGTCCTTGCACCGCTTCACCGCGCCGAACACGGAGTCACCTAGTGCAG” was tested, and the binding signal was 8940 fluorescence intensity (a.u.). For “TCTATATTTTTGCTATTTTCCATTAAAATCATATTATTTCCGGAGTCACCTAGTGCAG”, the binding signal was 8940 fluorescence intensity (a.u.). “GTGATTTCTGAGTTTCGGTTTATGTTTCTTGCCTCTGACGCGGAGTCACCTAGTGCAG” was tested, and the binding signal was 12500 fluorescence intensity (a.u.). In the case of “CCACCTCGGTACATGTTCTACATGTTGCGCGTATTTGATCCGGAGTCACCTAGTGCAG”, the binding signal is reported as 9360 fluorescence intensity (a.u.). “TTGCTGATGGCGCTGGTTTACTGCTCCTGAGGGGTAGGGACGGAGTCACCTAGTGCAG” was tested, and the binding signal was 9110 fluorescence intensity (a.u.). For “TATAGCTGTCCTCGAACCTATTCCACCGCCACGCGAGCAACGGAGTCACCTAGTGCAG”, the binding signal was 8800 fluorescence intensity (a.u.). “ATCCTATAGCATGTGATAAACCCATTACTACAAAACATCACGGAGTCACCTAGTGCAG” was tested, and the binding signal was 8200 fluorescence intensity (a.u.). “GCATGATATGATTCCTCCTGCTTTGATTCCAGTACATGTCCGGAGTCACCTAGTGCAG” was tested, and the binding signal was 8840 fluorescence intensity (a.u.). “GAGTGACTCTCTCTTCCATACATTGTCCCAAATATTATTTCGGAGTCACCTAGTGCAG” was tested, and the binding signal was 8970 fluorescence intensity (a.u.). “TGACTGACAACTTGGTCTTTTTTTTTTGATTTTGTTCTTTCGGAGTCACCTAGTGCAG” was tested, and the binding signal was 11900 fluorescence intensity (a.u.). For “GCATTTTTTACACAGGGAGCCACCATCATTGTCATCAGAACGGAGTCACCTAGTGCAG”, the binding signal was 8970 fluorescence intensity (a.u.). For “AACACTACTTGTCCTTTTCACATTGCATCATCGTTGAAACCGGAGTCACCTAGTGCAG”, the binding signal was 9500 fluorescence intensity (a.u.). In the case of “AGCCCATTAAGAATCTAGCCTGCGAGCCAACCGAGAAAATCGGAGTCACCTAGTGCAG”, the binding signal is reported as 8060 fluorescence intensity (a.u.).
